In US6762284:

B1: PIKAP AA 277-589 (protein, not shown: large carriers)
chain: EDSGDAEAHAFKSPSKENKKKDKDMLEDKFKSNNLEREQEQLDRIVKESGGKLTRRLVNSQCEFERRKPDGTTTLGLLHPVDPIVGEPGYCLVRLGMTTGRLQSGVNTLQGFKEDKRNKVTPVLYLNYGPYSSYAPHYDSTFANISKDDSDLIYSTYGEDSDLPSDFSIHEFLATCQDYPYVMADSLLDVLTKGGHSRTLQEMEMSLPEDEGHTRTLDTGKEMEQITEVEPPGRLDSSTQDRLIALKAVTNFGVPVEVFDSEEAEIFQKKLDETTRLLRELQEAQNERLSTRPPGNMICLLGPSSEKCILLNK
B2: PIKAP AA 517-589 (protein, not shown: large carriers)
chain: DRLIALKAVTNFGVPVEVFDSEEAEIFQKKLDETTRLLRELQEAQNERLSTRPPGNMICLLGPSSEKCILLNK

Target: p85 inter SH2 domain (AA 435-620) (human)
Assay: yeast two-hybrid

Binder	binding
B1	binds
B2	binds

These are yes or no findings as the source states them, for the method shown. Binding calls can cover weak binding; strength is not graded here.
